Experimental data reported in doi:10.1101/2025.05.04.652107.
No constants are given. Whether binding was seen depends on the method and setting. Binding seen in cells or lysates may run through a third protein. Some binding calls cover weakened binding; strength is not graded here.

Sequences of proteins named here, by UniProt entry; tags and fusion partners are left off.
UniProt Q07014: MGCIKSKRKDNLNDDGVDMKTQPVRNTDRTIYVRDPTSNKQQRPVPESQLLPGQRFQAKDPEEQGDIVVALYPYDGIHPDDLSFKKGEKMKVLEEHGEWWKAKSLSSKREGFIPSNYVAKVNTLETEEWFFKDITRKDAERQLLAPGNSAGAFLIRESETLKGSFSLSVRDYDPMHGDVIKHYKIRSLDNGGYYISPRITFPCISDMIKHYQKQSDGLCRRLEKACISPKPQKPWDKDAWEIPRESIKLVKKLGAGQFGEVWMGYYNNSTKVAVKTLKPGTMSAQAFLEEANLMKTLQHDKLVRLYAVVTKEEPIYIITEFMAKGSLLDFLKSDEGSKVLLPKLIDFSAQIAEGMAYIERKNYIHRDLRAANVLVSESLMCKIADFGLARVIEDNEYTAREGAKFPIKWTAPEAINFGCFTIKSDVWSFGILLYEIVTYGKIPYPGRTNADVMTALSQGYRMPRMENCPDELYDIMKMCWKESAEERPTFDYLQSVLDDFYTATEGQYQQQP

Key:
[1] = target: T1, Sialin/Sialin2 (NRK cells) (rat (endogenous in NRK-52E)) (UniProt Q5Q0U0); assay: proximity ligation
T1 sequence: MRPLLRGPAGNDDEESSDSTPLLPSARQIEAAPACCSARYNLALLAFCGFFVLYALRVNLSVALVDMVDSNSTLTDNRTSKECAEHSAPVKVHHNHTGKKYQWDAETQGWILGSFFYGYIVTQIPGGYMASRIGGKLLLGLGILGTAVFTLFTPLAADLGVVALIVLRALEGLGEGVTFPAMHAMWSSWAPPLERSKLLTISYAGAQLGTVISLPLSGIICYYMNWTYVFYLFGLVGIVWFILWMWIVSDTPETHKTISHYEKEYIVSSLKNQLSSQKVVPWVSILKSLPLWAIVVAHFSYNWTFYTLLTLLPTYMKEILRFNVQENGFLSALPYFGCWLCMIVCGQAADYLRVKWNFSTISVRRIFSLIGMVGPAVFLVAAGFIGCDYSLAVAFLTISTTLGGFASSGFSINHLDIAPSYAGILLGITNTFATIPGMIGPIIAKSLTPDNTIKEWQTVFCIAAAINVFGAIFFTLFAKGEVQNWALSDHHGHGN

[2] = target: T2, Sialin/Sialin2 (human cells) (human (endogenous in HeLa and HUVEC)) (UniProt Q9NRA2); assay: proximity ligation
T2 sequence: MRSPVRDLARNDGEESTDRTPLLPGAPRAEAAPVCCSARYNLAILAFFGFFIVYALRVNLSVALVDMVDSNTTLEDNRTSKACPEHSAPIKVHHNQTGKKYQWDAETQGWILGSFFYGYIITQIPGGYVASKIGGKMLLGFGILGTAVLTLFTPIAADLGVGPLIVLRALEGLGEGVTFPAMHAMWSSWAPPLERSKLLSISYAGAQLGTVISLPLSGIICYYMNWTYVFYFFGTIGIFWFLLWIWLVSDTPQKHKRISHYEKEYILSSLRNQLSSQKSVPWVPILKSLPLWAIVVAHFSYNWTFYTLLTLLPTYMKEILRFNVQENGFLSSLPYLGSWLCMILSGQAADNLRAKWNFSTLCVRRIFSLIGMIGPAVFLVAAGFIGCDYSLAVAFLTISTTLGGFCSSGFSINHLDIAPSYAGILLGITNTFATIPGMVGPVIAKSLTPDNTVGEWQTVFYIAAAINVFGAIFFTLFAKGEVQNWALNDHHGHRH

| binding [1] | binding [2] | Substance |
| --- | --- | --- |
| binds |  | Lyn kinase (NRK cells) (from UniProt Q07014 1-512) (enzyme) |
|  | binds | epidermal growth factor receptor (EGFR) (human cells) (from UniProt P00533 25-1210) |
